Assays:
[1] = test system: Reduced glutathione (GSH); assay: Estimation of reduced glutathione (GSH) in brain homogenate; details: 5 mg/kg p.o., scopolamine mice, mean
[2] = test system: scopolamine induced memory impairment in male Swiss albino mice; assay: Novel object recognition test (NORT), scopolamine induced memory impairment; details: 5 mg/kg p.o., scopolamine 1 mg/kg i.p.; for NORT (Recognition Index): mean; for NORT (Discrimination Index): mean (SEM in next line)
Lipid peroxidation (MDA) = assay: Lipid peroxidation (LPO) assay in brain homogenate; details: 5 mg/kg p.o., scopolamine mice, mean

Q: `COc1cc2c(cc1OC)C(=O)C(CC1CCN(Cc3ccccc3)CC1)C2` (stereo not shown) [Donepezil] was tested. Which “Reduced Glutathione” value [1] did it give?
A: Its value is 68.17 μmol/mg of protein.

Q: What about the “Reduced Glutathione” value ([1]; listed as donepezil) of the same compound?
A: Its value is “increasing trend in GSH levels but there was no statistical significance observed”.

Q: And the “NORT (Recognition Index)” value [2]?
A: The value was 0.513.

Q: What about the “NORT (Discrimination Index)” value [2] of the same compound?
A: Its value is 0.025.

Q: What about the “NORT (Discrimination Index)” value ([2]; listed as donepezil) of the same compound?
A: Its value is “significantly (P<0.01) improved”.

Q: What about the “NORT (Recognition Index)” value ([2]; listed as donepezil) of the same compound?
A: Its value is “significantly (P<0.01) improved”.

Q: And the “Lipid Peroxidation” value (Lipid peroxidation (MDA))?
A: Its value is 1798.77 μmol MDA/mg of protein.

Reference: US11433111B2 (priority 2019, dated 2022)
